Source: US20260049102 (published 2026)

Key:
Settings in all cases: whole synthesis
[1] = general procedure: Fmoc solid-phase peptide synthesis; Fmoc-Leu-Wang resin
[2] = general procedure: Fmoc solid-phase peptide synthesis; ctc resin loaded with Fmoc-D-Glu(OtBu)-OH
[3] = general procedure: Fmoc solid-phase peptide synthesis; Fmoc-Gln(Trt)-Wang resin

Question: For AQ-HSSKLQ↓L, which isolated yield [1] is on record?
Answer: 54%

Question: For AQ-HSSKLQ↓LGGde, which isolated yield [2] is on record?
Answer: 4%

Question: For PEPTIDE1{[AQ].H.S.S.K.L.Q}$$$$V2.0, which isolated yield [3] is on record?
Answer: 68%

For part of these data: HELM strings list residues between dots; [ac] is acetyl, [am] amide, other brackets name non-standard units.
